We go through two substances from paper PMC10393820.

Protein sequences, listed by entry. Tags and fused reporters are not part of them.
UniProt P15311: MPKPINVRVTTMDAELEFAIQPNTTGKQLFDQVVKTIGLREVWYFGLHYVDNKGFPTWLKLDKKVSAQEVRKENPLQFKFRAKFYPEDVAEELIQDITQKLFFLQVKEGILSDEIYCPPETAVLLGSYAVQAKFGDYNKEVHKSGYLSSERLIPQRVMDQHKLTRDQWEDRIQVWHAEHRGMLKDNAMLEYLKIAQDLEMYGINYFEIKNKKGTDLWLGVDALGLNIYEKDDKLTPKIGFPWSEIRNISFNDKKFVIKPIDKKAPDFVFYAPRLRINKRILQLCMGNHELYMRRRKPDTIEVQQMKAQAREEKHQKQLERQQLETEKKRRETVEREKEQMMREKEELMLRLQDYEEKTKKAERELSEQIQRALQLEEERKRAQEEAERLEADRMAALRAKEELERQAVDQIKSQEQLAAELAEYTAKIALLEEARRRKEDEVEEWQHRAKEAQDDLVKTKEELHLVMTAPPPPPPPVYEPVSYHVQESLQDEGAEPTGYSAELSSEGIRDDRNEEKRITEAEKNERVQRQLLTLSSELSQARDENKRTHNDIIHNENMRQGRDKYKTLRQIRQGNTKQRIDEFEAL

These are yes or no findings as the source states them, for the method shown. In cells and extracts the contact can be indirect. For part of these data: Where a sequence is shown, tags or fusion partners need not be part of it.

The target of assay [1] is Flag-PALM2^C408S (KYSE30 cells) (human) (UniProt Q9Y2D5). The experiment in a line: co-IP; immunoprecipitation from lysates of stably transfected KYSE30 cells; lysis buffer 50 mM Tris-HCl pH 7.5, 120 mM NaCl, 0.5% NP-40; Western blot (supplemental Fig. S5A).
Assay [2] has as its target T1, Flag-PALM2^ΔCAAX (the truncated type) (human) (UniProt Q9Y2D5).
T1 sequence: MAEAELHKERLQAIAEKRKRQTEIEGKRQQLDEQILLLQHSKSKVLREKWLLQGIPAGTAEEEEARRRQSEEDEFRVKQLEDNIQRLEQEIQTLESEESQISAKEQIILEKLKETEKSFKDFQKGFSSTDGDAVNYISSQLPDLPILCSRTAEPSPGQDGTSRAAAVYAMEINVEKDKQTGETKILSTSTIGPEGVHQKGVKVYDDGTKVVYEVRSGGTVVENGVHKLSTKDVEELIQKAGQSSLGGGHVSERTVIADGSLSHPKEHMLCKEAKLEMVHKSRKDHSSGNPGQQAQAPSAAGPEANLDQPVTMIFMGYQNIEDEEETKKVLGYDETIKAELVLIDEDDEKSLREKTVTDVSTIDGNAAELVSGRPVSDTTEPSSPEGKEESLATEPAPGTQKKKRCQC
The assay can be described thus: co-IP; Flag IP (anti-DYKDDDDK magnetic agarose) from lysates of transfected HEK 293T cells; lysis buffer 50 mM Tris-HCl pH 7.5, 120 mM NaCl, 0.5% NP-40; 4 °C overnight; Western blot; in Fig. 5C cells with or without FTI 277 for 48 h. (In general: Immunoblotting shows a protein as a band on a membrane.)

A further assay deals with Flag-PALM2^C408S (human) (UniProt Q9Y2D5). The assay is described as above.

For “ezrin (KYSE30 cells) (from UniProt P15311 1-586)”, the binding result in assay [1] is “no binding”.

On to “GFP-ezrin (wild type) (from UniProt P15311 1-586)”, for which the binding entry (in assay [2]; with Flag-PALM2^C408S (human)) was “no binding” in each case.
